PubChem BioAssay AID651664 (NMMLSC, 2012)
Screen size: about 1,800 compounds; fewer than 10 were called active.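 How the source made its calls: active means inhibition of granule release above a set limit; inactive means the rest.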 This is one part of the list.

Test: LAMP-1 surface externalization blockers in TALL-104 cells – cell-based, flow cytometry, validation set (AID 651664)
Conditions: TALL-104 LAMP-1 externalization, at 15.2 µM, hits give high values, stimulated with thapsigargin and PMA

inhibition, inactive:
CCOc1ccc(C(C)NC(=O)CCC(=O)O)cc1 (stereo unspecified) -2.7%, CCn1c(C)nc2cc(C(=O)NNS(=O)(=O)c3ccc(C)c(C)c3)ccc21 -1.7%, O=C(CSCc1ccccc1)N1CCN(c2cccc(C(F)(F)F)c2)CC1 -1.6%, CSc1nc(-c2ccc(Cl)cc2)nn1C(=O)c1ccco1 7%, CCN1CCN(CC(=O)Nc2sc3c(c2C#N)CCC(C)C3)CC1 (stereo unspecified) -7%, Cc1ccc(S(=O)(=O)/N=C(/Nc2ccccn2)c2ccc(Cl)cc2)cc1 -5.5%, O=S(=O)(CCc1nc2ccccc2o1)c1ccc(Cl)c(Cl)c1 -2.2%, N#CC1=C(N)OC2=C(CN(Cc3ccccc3)C/C2=C\c2cccnc2)C1c1cccnc1 (stereo unspecified) -2.1%, CCc1ccc(-n2c(SCC(=O)Nc3cc(C)[nH]n3)nc3[nH]ncc3c2=O)cc1 -1.2%, CC(NC(=O)Cc1ccc(-c2ccccc2)cc1)c1ccccc1 (stereo unspecified) 7.7%, CC(=O)c1c(C(C)=O)c(C)n(C2CCCCC2)c1C -1.3%, CCOc1ccc(OCC)c(NC(=O)CN(C)S(=O)(=O)c2cnc[nH]2)c1 3.7%, CCN(CC)c1nc(N2CCOCC2)c(C#N)c2c1CN(C)CC2 -1.2%, O=c1c2cnn(-c3ccc(F)cc3)c2ncn1Cc1ccc(F)cc1 2.9%, CCc1ccc2[nH]c(=O)c(CN(CCN(CC)CC)C(=O)NC3CCCCC3)cc2c1 -1.5%, COC(=O)/C=c1\sc2ncnn2c1=O -0.5%, CCc1cccc(C)c1NC(=O)c1cccc(N(C)C)c1 -0.4%, CCOCCCNC(=O)C1CCCN(S(=O)(=O)CC)C1 (stereo unspecified) 0.3%, Cc1ccc(-c2csc(N(Cc3ccco3)C(=O)c3cccs3)n2)cc1 4.8%, O=C1C=C(N2CCN(C(=O)c3ccccc3)CC2)C2(CCCCC2)O1 -4.4%, NC(=O)C1=NOC(CNc2ncc(C(F)(F)F)cc2Cl)C1 (stereo unspecified) -1.1%, O=C1NC(=O)C2(CCc3ccccc32)N1 (stereo unspecified) 2.7%, O=C(CN1CCN(c2ncc(C(F)(F)F)cc2Cl)CC1)NCCNc1ncc(C(F)(F)F)cc1Cl 55.4%, COc1ccc(-c2csc(Nc3ncccc3C)n2)cc1 -0.4%, CC(Oc1ccc(Cl)cc1Cl)C(=O)N(Cc1ccco1)C1CCS(=O)(=O)C1 (stereo unspecified) -0.5%, COc1ccccc1CNC(=O)c1cc2c(C)nn(Cc3ccc(F)cc3)c2s1 2.1%, CCOC(=O)c1c(=O)n(O)c2ccc(C)cc2[n+]1[O-] 3.2%, COc1ccccc1Nc1ncnc2ccccc12 2.9%, CC(=O)c1ccc(N2CCN(CCC#N)CC2)c(F)c1 8.2%, Cc1ccc(-c2ccc(CCC(=O)O)n2NC(=O)c2ccco2)cc1 3.9%, Cc1ccc(S(=O)(=O)N2CCN(C(=O)c3cc4c(C)nn(-c5ccccc5C)c4s3)CC2)cc1 -1.8%, CCCCc1n[nH]c2c1/C(=N/O)CC(c1ccccc1)C2 (stereo unspecified) 1%, O=C1c2ccccc2C(=O)N1OCc1ccc(Cl)cc1 -0.9%, CC(C)(C)n1ncc2c(=O)n(Cc3ccc(Cl)cc3Cl)cnc21 1.4%, O=c1c2ccccc2nc2ccc(NCc3ccco3)nn12 -1.2%, COc1ccc(Nc2ncnc3c2oc2ccccc23)cc1 -0.9%, COc1cc(/C=N/Nc2snc(SC)c2C#N)cc(OC)c1OC 0.9%, C=CCn1c(=N)c(C(=O)NCCCOC)cc2c(=O)n3cccc(C)c3nc21 2.4%, CCOc1ccc(N=C2NC(=O)C(CC(=O)O)S2)cc1 (stereo unspecified) 1.9%, CC(=O)N1CCN(C(=O)CSc2nc3c(cnn3-c3ccccc3)c(=O)[nH]2)CC1 -4.1%, COc1ccc(C(=O)NCc2cn3ccccc3n2)cc1 -3.2%, Cc1ccc(NC(=O)COc2ccccc2)c(NC(=O)c2ccccc2C)c1 -0.5%, COc1ccc(C(=O)CSc2nnc(CNC(=O)c3ccc(OC)c(OC)c3)n2C)cc1 0.7%, Fc1ccc(NC(=S)N2CCCC2)cc1 -1.6%, O=C(NCc1ccco1)c1ccc(CS(=O)(=O)Cc2ccc(F)cc2)o1 -3%, S=C(NCCC(c1ccccc1)c1ccccc1)Nc1cccc(Cl)c1 3.1%, O=[N+]([O-])c1ccc(N/N=C/c2cn(-c3ccccc3)nc2-c2ccccc2)cc1 -0.4%, CCOc1ccc(CCNC(=O)C2CCCN(c3nnc(-n4cccc4)s3)C2)cc1OCC (stereo unspecified) -2.8%, CN(Cc1nc(-c2ccccn2)no1)S(=O)(=O)c1ccc(Br)cc1 -0.1%, Cc1ccc(-c2nnc(SCC(=O)NCC3CCCO3)n2C)cc1 (stereo unspecified) 5.4%, CCOC(=O)C(C)On1c(-c2ccccc2)nc2ccc([N+](=O)[O-])cc21 (stereo unspecified) 4.1%, N#CC1=C(N)Oc2n[nH]c(-c3cccs3)c2C1c1ccsc1 (stereo unspecified) 8.2%, C=CCn1c(-c2ccco2)n[nH]c1=S -0.5%, N#CC1=C(N)NC(SCC(=O)Nc2ccc(Br)cc2)=C(C#N)C12CCCCC2 -1.1%, Cc1cc2cc(NC(=O)c3ccco3)ccc2[nH]1 -1.7%, CC(NC(=O)NCCCC(=O)O)(C(F)(F)F)C(F)(F)F 2%, Cc1n(CC(O)COC2CCCCC2)c2ccccc2[n+]1C (stereo unspecified) -0.4%, COc1ccc(C)cc1-n1nnnc1SCc1cn2ccsc2n1 -3.3%, Cc1cccc(NC(=O)c2cc(-c3ccco3)nc3ccccc23)n1 -0.2%, COc1ccc(-c2cc(C(F)F)n3ncc(C(=O)N4CCSCC4)c3n2)cc1 -4.4%, Cc1c(C(=O)NC(C)C)oc2c1-c1[nH]ncc1CC2 -0.6%, COc1cccc(C2C3=C(N=C4SCC(=O)N42)c2ccccc2CC3)c1OC (stereo unspecified) -3.4%, O=C1c2ccccc2C(=O)N1SC1CCCCC1 -1.8%, O=C(NCc1ccccc1)c1c[nH]c2ccc(S(=O)(=O)Nc3ccc4c(c3)OCCO4)cc2c1=O 1.8%, O=C(Nc1ccccc1C(=O)NCCCn1ccnc1)c1ccc(Cl)cc1Cl 3%, Cc1nn(Cc2ccccc2Cl)c(C)c1N -0.7%, CCOC(=O)N1CCN(C(c2cccnc2)c2ccc3cccnc3c2O)CC1 (stereo unspecified) -2%, CCOc1cc(CNc2ccc(O)cc2)ccc1OCc1ccc(Cl)cc1Cl 1.4%, O=c1cc(NCCO)c2ccccc2o1 -1.9%, CCCn1c(=O)[nH]c(=O)c2c1nc(-c1ccc(OC(F)(F)C(F)C(F)(F)F)cc1)n2CCOC (stereo unspecified) -0.5%, COc1ccc(-c2ccc(=O)n(CC(=O)Nc3ccc(C(=O)NC4CC4)cc3)n2)cc1OC 1.4%, Cc1nnc(N(CCC#N)CCC#N)s1 0%, CN(C)CCNC(=O)c1coc(=O)c(Br)c1 -1.1%, Cc1cccc(CN2C(=O)N/C(=C/c3ccc(C)s3)C2=O)c1 -1.5%, COC(=O)c1[nH]c2ccccc2c1NC(=O)CN1CCN(C(=O)c2ccco2)CC1 -1.7%, Cc1ccc2nc(-c3ccccc3)cn2c1 -3.7%
